Some of the results follow.
Compound: Cc1cc(ccc1-c1ccccc1)C(=O)N1CCCN(CC1)C(=O)CCl [compound 10]
Test: probe-labelled cysteine peptide fold change vs DMSO (competition) (log2 fold change); higher = less target engagement (more negative = stronger competition)
Details: THP-1, incubation time: 4 h
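Also: competitive profiling in live THP-1 cells: cysteine peptides tagged with an iodoacetamide desthiobiotin (IA-DTB) probe, intensity after compound treatment relative to DMSO-treated cells.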

By UniProt entry, the sequences of proteins in these tests, tags left out. Where a name states a change or a piece, a line headed by the entry shows the natural chain unless it says otherwise.
UniProt Q15181: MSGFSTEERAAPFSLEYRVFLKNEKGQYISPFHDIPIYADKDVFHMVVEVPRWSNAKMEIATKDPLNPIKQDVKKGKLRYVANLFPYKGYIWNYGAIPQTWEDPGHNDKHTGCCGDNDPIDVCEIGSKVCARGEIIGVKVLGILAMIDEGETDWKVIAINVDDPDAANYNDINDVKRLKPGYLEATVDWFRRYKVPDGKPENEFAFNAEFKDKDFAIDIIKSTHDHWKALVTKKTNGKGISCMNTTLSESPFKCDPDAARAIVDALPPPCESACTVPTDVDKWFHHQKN
UniProt Q7Z3K3: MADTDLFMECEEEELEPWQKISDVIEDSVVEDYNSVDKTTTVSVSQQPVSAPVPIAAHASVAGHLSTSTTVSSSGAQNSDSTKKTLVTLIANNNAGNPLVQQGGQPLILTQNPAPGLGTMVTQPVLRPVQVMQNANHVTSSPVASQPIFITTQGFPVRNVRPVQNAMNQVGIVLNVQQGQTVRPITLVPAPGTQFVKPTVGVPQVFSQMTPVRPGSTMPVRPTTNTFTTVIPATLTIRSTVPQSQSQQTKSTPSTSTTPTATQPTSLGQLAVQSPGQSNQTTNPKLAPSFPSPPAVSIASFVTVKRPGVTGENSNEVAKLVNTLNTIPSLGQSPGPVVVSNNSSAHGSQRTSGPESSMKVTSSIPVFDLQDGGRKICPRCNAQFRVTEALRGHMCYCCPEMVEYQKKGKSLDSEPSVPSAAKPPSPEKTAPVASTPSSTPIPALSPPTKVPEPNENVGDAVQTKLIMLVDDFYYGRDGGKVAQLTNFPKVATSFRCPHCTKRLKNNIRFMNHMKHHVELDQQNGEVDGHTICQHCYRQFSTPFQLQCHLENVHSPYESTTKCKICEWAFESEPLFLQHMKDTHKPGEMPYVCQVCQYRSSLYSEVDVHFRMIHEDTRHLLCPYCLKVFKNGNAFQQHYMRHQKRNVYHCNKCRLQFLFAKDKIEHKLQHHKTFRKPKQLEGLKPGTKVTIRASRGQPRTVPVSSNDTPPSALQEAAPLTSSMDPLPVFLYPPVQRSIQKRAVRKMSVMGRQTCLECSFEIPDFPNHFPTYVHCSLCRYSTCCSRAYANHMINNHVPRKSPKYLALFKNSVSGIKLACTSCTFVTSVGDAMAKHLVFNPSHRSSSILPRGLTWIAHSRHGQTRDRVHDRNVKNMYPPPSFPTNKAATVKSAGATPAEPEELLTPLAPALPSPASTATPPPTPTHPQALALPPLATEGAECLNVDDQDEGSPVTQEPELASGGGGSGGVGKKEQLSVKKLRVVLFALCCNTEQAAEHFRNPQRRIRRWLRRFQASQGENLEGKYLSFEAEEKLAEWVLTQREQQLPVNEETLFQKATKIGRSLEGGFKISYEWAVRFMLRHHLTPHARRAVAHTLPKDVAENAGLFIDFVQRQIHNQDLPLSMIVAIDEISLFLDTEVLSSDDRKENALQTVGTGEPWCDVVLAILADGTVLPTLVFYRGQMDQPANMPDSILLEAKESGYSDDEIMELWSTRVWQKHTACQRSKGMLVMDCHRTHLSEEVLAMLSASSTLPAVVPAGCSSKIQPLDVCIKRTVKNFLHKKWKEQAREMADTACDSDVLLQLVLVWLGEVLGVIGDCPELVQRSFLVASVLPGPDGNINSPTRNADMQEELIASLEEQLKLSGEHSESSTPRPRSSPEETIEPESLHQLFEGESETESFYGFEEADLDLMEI
UniProt Q86W92: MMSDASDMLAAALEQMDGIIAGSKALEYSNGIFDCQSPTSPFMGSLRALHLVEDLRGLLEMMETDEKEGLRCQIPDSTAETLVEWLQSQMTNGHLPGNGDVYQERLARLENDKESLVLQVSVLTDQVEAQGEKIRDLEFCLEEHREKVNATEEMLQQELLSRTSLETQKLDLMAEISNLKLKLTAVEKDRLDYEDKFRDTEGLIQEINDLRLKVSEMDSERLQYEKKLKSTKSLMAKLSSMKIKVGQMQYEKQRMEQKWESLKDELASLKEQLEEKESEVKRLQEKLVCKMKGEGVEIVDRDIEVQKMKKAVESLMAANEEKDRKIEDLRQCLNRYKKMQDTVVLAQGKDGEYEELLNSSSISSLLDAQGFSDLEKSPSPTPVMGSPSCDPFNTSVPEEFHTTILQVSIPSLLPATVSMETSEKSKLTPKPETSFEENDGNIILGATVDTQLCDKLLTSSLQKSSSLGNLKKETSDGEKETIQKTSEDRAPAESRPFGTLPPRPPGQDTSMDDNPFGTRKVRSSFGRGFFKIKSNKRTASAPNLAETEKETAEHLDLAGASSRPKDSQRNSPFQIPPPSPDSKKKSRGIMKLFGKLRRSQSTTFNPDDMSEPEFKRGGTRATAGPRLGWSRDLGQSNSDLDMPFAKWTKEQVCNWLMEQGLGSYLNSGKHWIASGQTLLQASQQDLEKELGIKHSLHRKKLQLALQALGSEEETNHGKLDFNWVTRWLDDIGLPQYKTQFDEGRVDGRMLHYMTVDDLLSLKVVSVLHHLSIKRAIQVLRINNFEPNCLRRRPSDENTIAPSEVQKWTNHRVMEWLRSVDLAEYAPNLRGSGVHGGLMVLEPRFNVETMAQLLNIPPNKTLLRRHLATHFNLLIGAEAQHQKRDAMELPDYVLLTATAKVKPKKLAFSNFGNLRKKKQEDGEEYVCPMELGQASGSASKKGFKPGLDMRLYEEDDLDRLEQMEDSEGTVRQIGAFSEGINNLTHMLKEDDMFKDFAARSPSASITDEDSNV
UniProt P0CAP2, whole entry, looked up: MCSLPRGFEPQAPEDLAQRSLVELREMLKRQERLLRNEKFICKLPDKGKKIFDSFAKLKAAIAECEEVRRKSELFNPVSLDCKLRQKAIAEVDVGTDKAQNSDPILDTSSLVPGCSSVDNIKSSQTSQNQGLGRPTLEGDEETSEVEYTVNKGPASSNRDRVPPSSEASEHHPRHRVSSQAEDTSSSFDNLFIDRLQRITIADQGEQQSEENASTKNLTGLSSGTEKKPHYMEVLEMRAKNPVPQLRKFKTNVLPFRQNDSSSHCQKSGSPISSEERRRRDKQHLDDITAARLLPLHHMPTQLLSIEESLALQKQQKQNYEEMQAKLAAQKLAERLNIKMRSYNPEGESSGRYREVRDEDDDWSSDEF
UniProt Q8NBL1: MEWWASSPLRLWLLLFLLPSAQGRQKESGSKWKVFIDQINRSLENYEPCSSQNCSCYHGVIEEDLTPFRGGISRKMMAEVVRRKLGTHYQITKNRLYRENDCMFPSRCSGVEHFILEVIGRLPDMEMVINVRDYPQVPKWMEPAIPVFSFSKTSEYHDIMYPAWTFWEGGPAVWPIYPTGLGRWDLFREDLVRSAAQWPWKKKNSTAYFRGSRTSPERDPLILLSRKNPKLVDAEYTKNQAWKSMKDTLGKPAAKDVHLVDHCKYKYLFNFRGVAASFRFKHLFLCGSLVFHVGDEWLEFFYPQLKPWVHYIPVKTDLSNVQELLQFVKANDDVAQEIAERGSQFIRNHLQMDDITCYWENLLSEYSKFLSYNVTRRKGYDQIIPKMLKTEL
UniProt P28340: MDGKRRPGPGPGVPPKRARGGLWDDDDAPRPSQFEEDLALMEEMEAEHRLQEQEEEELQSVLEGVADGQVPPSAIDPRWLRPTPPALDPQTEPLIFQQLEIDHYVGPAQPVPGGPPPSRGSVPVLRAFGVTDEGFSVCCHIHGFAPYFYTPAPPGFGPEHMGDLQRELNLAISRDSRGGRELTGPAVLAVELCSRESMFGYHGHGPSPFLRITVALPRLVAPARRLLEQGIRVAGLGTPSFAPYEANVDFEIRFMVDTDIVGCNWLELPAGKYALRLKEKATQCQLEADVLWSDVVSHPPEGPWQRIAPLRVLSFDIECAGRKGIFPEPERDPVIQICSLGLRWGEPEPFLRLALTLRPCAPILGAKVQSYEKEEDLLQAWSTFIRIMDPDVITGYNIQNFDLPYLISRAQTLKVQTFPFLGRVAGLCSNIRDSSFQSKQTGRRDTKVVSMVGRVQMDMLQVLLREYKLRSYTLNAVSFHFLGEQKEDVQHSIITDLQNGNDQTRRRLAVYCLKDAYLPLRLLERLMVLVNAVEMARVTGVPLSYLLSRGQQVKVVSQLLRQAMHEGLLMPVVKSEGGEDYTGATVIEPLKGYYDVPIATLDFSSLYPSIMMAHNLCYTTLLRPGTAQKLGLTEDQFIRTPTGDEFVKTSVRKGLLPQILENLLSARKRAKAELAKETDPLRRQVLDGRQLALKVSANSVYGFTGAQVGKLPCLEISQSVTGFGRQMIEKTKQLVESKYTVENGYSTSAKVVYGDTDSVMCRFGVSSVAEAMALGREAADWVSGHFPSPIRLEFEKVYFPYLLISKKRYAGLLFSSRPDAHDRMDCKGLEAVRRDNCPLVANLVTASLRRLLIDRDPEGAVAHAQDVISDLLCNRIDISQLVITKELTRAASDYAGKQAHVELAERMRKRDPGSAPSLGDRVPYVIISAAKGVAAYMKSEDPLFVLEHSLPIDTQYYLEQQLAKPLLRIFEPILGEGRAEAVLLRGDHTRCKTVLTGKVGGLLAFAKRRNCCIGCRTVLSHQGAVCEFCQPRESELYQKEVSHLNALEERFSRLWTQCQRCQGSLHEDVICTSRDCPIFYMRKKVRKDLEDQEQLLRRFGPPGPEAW
UniProt O95602, whole entry, looked up: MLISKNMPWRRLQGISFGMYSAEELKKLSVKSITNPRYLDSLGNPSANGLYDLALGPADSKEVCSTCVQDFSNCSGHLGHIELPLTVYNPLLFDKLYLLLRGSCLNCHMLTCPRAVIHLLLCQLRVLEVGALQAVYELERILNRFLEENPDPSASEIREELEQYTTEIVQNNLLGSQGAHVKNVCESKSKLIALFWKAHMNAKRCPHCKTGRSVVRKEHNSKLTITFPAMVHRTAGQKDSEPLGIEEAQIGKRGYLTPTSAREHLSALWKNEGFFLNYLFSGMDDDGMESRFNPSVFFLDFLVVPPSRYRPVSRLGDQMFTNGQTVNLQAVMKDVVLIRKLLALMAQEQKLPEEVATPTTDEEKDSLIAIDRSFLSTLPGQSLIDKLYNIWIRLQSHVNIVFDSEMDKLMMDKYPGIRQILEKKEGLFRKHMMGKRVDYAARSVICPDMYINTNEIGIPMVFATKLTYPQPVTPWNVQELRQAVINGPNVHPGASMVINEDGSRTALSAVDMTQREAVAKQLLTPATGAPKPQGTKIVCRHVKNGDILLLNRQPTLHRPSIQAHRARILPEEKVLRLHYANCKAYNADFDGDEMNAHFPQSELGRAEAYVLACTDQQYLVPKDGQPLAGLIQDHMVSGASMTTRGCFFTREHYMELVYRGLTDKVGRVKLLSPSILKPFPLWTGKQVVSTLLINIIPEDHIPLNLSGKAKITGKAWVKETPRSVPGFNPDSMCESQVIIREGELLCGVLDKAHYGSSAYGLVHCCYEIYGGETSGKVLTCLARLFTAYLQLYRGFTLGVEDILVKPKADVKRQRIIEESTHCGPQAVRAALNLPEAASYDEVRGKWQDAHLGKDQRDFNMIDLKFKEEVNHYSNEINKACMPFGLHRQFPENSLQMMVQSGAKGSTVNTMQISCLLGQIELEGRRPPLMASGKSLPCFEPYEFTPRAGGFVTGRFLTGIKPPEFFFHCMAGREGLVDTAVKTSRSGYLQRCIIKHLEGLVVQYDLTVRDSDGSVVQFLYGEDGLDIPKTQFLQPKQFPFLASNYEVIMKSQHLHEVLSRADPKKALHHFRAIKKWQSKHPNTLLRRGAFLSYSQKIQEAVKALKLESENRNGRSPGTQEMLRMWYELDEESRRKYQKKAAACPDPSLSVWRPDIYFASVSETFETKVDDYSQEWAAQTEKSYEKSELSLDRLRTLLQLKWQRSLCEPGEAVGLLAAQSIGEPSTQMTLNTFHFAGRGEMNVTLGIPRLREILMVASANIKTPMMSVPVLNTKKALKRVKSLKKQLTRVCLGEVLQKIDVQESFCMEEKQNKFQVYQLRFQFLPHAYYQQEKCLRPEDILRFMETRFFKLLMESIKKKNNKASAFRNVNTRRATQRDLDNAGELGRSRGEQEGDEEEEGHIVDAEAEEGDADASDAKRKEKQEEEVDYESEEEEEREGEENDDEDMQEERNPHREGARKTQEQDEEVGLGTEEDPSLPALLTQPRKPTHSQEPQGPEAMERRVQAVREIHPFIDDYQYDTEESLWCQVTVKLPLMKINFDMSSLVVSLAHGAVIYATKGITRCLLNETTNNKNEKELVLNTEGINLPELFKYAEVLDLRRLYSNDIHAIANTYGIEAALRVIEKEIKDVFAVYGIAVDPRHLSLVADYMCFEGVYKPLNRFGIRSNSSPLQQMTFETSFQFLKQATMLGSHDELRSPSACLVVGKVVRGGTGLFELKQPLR

Target | probe-labelled cysteine peptide fold change (10 µM) | probe-labelled cysteine peptide fold change (50 µM)
POLG2_Q9UHN1_73_SHAELEGNGEHPEAPGSGEGSEALLEICQR (UniProt Q9UHN1) | 0.0892 | 0.254
PPA1_Q15181_123_HTGCCGDNDPIDVCEIGSK (UniProt Q15181) | -0.336 | -0.0139
POGZ_Q7Z3K3_565_ICEWAFESEPLFLQHMK (UniProt Q7Z3K3) | 0.308 | 0.392
POLR2A_P24928_1245_INAGFGDDLNCIFNDDNAEK (UniProt P24928) | -0.0487 | -0.0948
POP1_Q99575_745_SEVPCAPMPK (UniProt Q99575) | -0.487 | -0.414
PPFIBP1_Q86W92_140_DLEFCLEEHREK (UniProt Q86W92) | -0.00273 | -0.000387
POR_P16435_363_KHPFPCPTSYR (UniProt P16435) | 0.017 | 0.198
POLR2M_P0CAP2_82_KSELFNPVSLDCK (UniProt P0CAP2) | -0.417 | -0.335
POGLUT1_Q8NBL1_357_NHLQMDDITCYWENLLSEYSK (UniProt Q8NBL1) | -0.0315 | 0.0694
POLE_Q07864_600_HALEEEEKVPVEQVTNFEEVCDEIK (UniProt Q07864) | -0.247 | -1.05
POLR2I_P36954_52_NCDYQQEADNSCIYVNK (UniProt P36954) | -0.00555 | -0.256
POLD1_P28340_512_LAVYCLK (UniProt P28340) | -0.0324 | 0.154
POLR2A_P24928_1430_CSFEETVDVLMEAAAHGESDPMK (UniProt P24928) | -0.0558 | -0.211
POLR1A_O95602_1304_IDVQESFCMEEK (UniProt O95602) | -0.479 | 0.113

Record cards (already shown).
POGZ_Q7Z3K3_565_ICEWAFESEPLFLQHMK (UniProt Q7Z3K3) is listed as probe-labelled cysteine peptide fold change (10 µM): 0.308; probe-labelled cysteine peptide fold change (50 µM): 0.392
POLR2A_P24928_1430_CSFEETVDVLMEAAAHGESDPMK (UniProt P24928) is listed as probe-labelled cysteine peptide fold change (10 µM): -0.0558; probe-labelled cysteine peptide fold change (50 µM): -0.211

Source: the supplement of paper PMC12067093, “Discovery and optimisation of a covalent ligand for TRIM25 and its application to targeted protein ubiquitination” (Chemical Science, 2025)
